From patent US6841546B2, “Substituted tetracycline compounds as antifungal agents” (Paratek Pharmaceuticals, Inc., priority 2001, dated 2005)
Some of these results come from one statement about several compounds together.

How the values were obtained:
Experiment in all cases: Antifungal activity, broth microdilution (NCCLS)
Assay type in all cases: cell-based
[1] = tested on: Candida albicans; details: C. Albicans; procedure of example 2
[2] = tested on: Candida parapsilosis; details: C. parapsilosis; procedure of example 2
[3] = tested on: Candida tropicalis; details: C. tropicalis; procedure of example 2

Measured: Minimum Inhibitory Concentrations (MIC)

C[C@H]1c2cccc(O)c2C(=O)C2=C(O)[C@]3(O)C(=O)C(C(N)=O)=C(O)[C@@H](N(C)C)[C@@H]3[C@@H](O)[C@@H]21 [doxycycline]
> 64: all assays above

CN(C)c1ccc(O)c2c1C[C@H]1C[C@H]3[C@H](N(C)C)C(O)=C(C(N)=O)C(=O)[C@@]3(O)C(O)=C1C2=O [minocycline]
> 64: all assays above
